The text below walks through data of PMC10416611.

These are yes or no findings as the source states them, for the method shown. In cells and extracts the contact can be indirect. A yes stands for co-enrichment or nearness to the bait. Other partners may have been found.

Sequences and labels used below:
B1: AHL15 (endogenous) (protein, UniProt Q9M2S3 1-310)
chain: MANPWWVGNVAIGGVESPVTSSAPSLHHRNSNNNNPPTMTRSDPRLDHDFTTNNSGSPNTQTQSQEEQNSRDEQPAVEPGSGSGSTGRRPRGRPPGSKNKPKSPVVVTKESPNSLQSHVLEIATGADVAESLNAFARRRGRGVSVLSGSGLVTNVTLRQPAASGGVVSLRGQFEILSMCGAFLPTSGSPAAAAGLTIYLAGAQGQVVGGGVAGPLIASGPVIVIAATFCNATYERLPIEEEQQQEQPLQLEDGKKQKEENDDNESGNNGNEGSMQPPMYNMPPNFIPNGHQMAQHDVYWGGPPPRAPPSY
B2: AHL28 (endogenous) (protein, UniProt Q9M9R4 1-206)
chain: METVGRPRGRPRGSKNKPKAPIFVTIDPPMSPYILEVPSGNDVVEALNRFCRGKAIGFCVLSGSGSVADVTLRQPSPAAPGSTITFHGKFDLLSVSATFLPPLPPTSLSPPVSNFFTVSLAGPQGKVIGGFVAGPLVAAGTVYFVATSFKNPSYHRLPATEEEQRNSAEGEEEGQSPPVSGGGGESMYVGGSDVIWDPNAKAPSPY
B3: AHL19 (endogenous) (protein, UniProt Q9SR17 1-315)
chain: MANPWWTGQVNLSGLETTPPGSSQLKKPDLHISMNMAMDSGHNNHHHHQEVDNNNNDDDRDNLSGDDHEPREGAVEAPTRRPRGRPAGSKNKPKPPIFVTRDSPNALKSHVMEIASGTDVIETLATFARRRQRGICILSGNGTVANVTLRQPSTAAVAAAPGGAAVLALQGRFEILSLTGSFLPGPAPPGSTGLTIYLAGGQGQVVGGSVVGPLMAAGPVMLIAATFSNATYERLPLEEEEAAERGGGGGSGGVVPGQLGGGGSPLSSGAGGGDGNQGLPVYNMPGNLVSNGGSGGGGQMSGQEAYGWAQARSGF

This test addresses GFP-AHL17 fusion protein (Arabidopsis thaliana) (UniProt Q9LTA2). The test can be described thus: affinity purification with mass spectrometry; proteins extracted from 7-day-old 35S::GFP-AHL17 Arabidopsis seedlings (methods: roots), precipitated with anti-GFP antibody, mass spectrometry; WT plants as negative control.
Take B1: the binding entry is “binds”.
Consider B2, for which the binding entry is recorded as “binds”.
Turning to B3, the binding entry was “binds”.
